Laboratory results as given in article PMC8046669.
These are yes or no findings as the source states them, for the method shown.

Protein sequences, listed by entry. Tags and fused reporters are not part of them. Lines headed by an entry give the natural chain unless they say otherwise; changes in a name come on top.
UniProt P32558: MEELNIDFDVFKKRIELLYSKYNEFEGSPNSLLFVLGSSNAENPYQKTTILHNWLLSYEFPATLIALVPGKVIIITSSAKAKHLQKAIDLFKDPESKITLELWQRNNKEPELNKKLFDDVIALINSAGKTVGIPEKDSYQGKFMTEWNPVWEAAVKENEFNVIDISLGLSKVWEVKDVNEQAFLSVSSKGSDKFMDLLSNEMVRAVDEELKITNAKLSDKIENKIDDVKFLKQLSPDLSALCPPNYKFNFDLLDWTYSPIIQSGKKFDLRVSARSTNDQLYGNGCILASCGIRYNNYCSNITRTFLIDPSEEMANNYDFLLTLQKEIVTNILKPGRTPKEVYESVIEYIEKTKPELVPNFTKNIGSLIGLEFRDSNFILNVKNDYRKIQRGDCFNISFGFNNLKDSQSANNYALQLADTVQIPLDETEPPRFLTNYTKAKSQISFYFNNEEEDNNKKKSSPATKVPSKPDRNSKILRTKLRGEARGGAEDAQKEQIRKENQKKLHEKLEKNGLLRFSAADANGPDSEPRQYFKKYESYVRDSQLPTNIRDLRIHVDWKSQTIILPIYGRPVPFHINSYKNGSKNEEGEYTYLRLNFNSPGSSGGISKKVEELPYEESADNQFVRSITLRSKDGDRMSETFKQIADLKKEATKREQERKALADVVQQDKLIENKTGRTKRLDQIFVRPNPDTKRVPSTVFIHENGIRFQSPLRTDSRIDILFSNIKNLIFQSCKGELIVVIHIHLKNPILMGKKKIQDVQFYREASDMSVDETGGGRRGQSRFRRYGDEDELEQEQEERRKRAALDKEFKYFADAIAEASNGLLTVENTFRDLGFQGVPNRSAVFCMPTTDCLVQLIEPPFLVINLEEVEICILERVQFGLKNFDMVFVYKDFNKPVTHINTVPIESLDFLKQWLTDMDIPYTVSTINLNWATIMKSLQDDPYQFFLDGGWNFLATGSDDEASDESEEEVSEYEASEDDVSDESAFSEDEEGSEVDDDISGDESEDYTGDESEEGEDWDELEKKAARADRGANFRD

Biological target: T1, S. cerevisiae Spt4/5 (S. cerevisiae) (UniProt P32914+P27692)
T1 sequence 1: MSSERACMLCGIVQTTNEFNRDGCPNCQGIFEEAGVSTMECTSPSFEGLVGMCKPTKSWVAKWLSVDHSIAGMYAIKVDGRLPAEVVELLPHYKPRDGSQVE
T1 sequence 2: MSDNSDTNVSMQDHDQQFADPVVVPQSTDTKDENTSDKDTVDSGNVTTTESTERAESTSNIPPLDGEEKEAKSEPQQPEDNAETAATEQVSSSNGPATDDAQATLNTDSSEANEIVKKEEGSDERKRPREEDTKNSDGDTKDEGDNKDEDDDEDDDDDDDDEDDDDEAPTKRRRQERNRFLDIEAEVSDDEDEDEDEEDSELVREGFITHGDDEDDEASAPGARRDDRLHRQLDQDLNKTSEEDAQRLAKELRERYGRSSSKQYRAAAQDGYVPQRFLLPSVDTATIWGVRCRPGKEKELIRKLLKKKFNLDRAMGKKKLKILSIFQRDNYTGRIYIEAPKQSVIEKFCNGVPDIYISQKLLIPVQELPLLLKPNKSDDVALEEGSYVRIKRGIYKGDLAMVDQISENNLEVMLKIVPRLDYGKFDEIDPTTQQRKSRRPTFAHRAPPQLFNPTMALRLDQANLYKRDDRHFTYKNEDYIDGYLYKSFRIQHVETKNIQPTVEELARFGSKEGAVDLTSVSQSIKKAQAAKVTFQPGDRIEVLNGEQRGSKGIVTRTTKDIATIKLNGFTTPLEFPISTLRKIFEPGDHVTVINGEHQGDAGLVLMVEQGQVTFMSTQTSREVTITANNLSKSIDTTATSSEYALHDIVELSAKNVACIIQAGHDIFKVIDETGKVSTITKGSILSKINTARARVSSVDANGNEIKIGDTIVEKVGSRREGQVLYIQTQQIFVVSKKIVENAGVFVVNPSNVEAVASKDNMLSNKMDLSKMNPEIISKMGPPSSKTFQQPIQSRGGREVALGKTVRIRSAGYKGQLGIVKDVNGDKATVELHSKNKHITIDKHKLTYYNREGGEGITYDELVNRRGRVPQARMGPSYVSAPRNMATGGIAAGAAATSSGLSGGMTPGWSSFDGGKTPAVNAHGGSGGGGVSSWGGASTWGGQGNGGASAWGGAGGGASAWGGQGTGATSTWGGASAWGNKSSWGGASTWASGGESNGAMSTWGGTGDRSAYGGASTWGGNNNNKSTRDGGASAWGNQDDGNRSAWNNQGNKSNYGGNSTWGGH
Test: cryo-EM structure; transcribing Pol II−Spt4/5−nucleosome−FACT complex, Chd1 withheld; GTP, CTP, UTP and 3'-dATP; 130 mM NaCl, 20 mM Na-HEPES pH 7.4, 3 mM MgCl2; purified by size exclusion chromatography, crosslinked; both purified

binding: no binding
Substance: S. cerevisiae FACT (heterodimer of Spt16 and Pob3) (from UniProt P32558 1-1035; Q04636 1-552) (complex)
